PubChem BioAssay AID1224830, NIAID, 2016

- Aim: 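Regulators of TLR4 signalling towards TNF-alpha in macrophage-like cells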 (primary screen)
- Cells: human THP-1 monocytic leukaemia cells, TNF dual-luciferase reporter clone, PMA-differentiated to macrophage-like cells
- Knock-down reagent: siRNA pool against human genes, 50 nM
- Time to read-out: LPS for 4 h, given about 3 days after siRNA transfection
- Treatment: bacterial LPS (TLR4 ligand), 10 ng/ml
- Measurement: 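TNF firefly reporter luminescence divided by renilla, normalised to the plate median, then turned into a robust z-score for each replicate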
- Direction: TNF reporter robust z-score: higher = stronger TNF reporter response to LPS
- Active means: 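a well is active when its z-score exceeds 2.8 or falls below -1.5; control wells carry no call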
Shown is a random part of about 18,000 deposited reagents. In the full data, about 2,900 (16%) got an active call. 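Calls are made per well; low scores hint the gene aids the LPS response, high scores that it dampens it.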 Repeated entries: four replicate wells of each siRNA pool. Reagent sequences are not shown.

no.	target gene	TNF reporter robust z-score	activity call
1	SCRG1	-2.09	active
2	SCRG1	-1.98	active
3	SCRG1	-2.12	active
4	SCRG1	-1.55	active
5	COPB2	-0.74	inactive
6	COPB2	-0.16	inactive
7	COPB2	-0.65	inactive
8	COPB2	-0.3	inactive
9	ZNF526	-0.88	inactive
10	ZNF526	-0.96	inactive
11	ZNF526	-0.56	inactive
12	ZNF526	0.27	inactive
13	ASB13	-1.51	active
14	ASB13	-0.29	inactive
15	ASB13	1.54	inactive
16	ASB13	-0.26	inactive
17	POLE	-1.35	inactive
18	POLE	-1.47	inactive
19	POLE	-1.1	inactive
20	POLE	-0.47	inactive
21	TLE2	-0.9	inactive
22	TLE2	-1.29	inactive
23	TLE2	-0.94	inactive
24	SNX32	1.26	inactive
25	SNX32	0.82	inactive
26	SNX32	0.22	inactive
27	SNX32	0.89	inactive
28	FLVCR2	0.58	inactive
29	FLVCR2	-0.49	inactive
30	FLVCR2	-0.52	inactive
31	FLVCR2	0.76	inactive
32	G6PC3	1.79	inactive
33	G6PC3	0.69	inactive
34	G6PC3	1.06	inactive
35	G6PC3	0.19	inactive
36	PHLDB2	-0.35	inactive
37	PHLDB2	-0.9	inactive
38	PHLDB2	1.29	inactive
39	PHLDB2	-0.27	inactive
40	OPHN1	0.64	inactive
41	OPHN1	1.71	inactive
42	OPHN1	1.57	inactive
43	OPHN1	0.57	inactive
44	TRAK1	1.68	inactive
45	TRAK1	0.9	inactive
46	TRAK1	1.98	inactive
47	TRAK1	1.45	inactive
48	HSPA12B	0.45	inactive
49	HSPA12B	0.58	inactive
50	HSPA12B	-0.67	inactive
51	HSPA12B	1.1	inactive
52	BTG2	-1.54	active
53	BTG2	-0.92	inactive
54	BTG2	-0.18	inactive
55	BTG2	0.32	inactive
56	CPEB3	1.44	inactive
57	CPEB3	0.42	inactive
58	CPEB3	-0.19	inactive
59	CPEB3	3.01	active
60	MYH6	-1.01	inactive
61	MYH6	-0.83	inactive
62	MYH6	-0.78	inactive
63	MYH6	-0.46	inactive
64	ROS1	1.16	inactive
65	ROS1	2.52	inactive
66	ROS1	0.18	inactive
67	ROS1	1.12	inactive
68	MYL2	0.35	inactive
69	MYL2	0.46	inactive
70	MYL2	-0.49	inactive
71	MYL2	-0.23	inactive
72	AK1	-1.23	inactive
73	AK1	1.11	inactive
74	AK1	0.55	inactive
75	AK1	1.47	inactive
76	NUP62CL	1.33	inactive
77	NUP62CL	-0.46	inactive
78	NUP62CL	0.24	inactive
79	NUP62CL	-0.5	inactive
80	MUCL3	0.87	inactive
81	MUCL3	1.02	inactive
82	MUCL3	1.04	inactive
83	MUCL3	2.88	active
84	PRSS37	-1.36	inactive
85	PRSS37	-1.05	inactive
86	PRSS37	-0.29	inactive
87	PRSS37	-0.61	inactive

Next part, starting with the last 6 of the part before.
no.	target gene	TNF reporter robust z-score	activity call
82	MUCL3	1.04	inactive
83	MUCL3	2.88	active
84	PRSS37	-1.36	inactive
85	PRSS37	-1.05	inactive
86	PRSS37	-0.29	inactive
87	PRSS37	-0.61	inactive
88	HSD17B7	0.74	inactive
89	HSD17B7	1.43	inactive
90	HSD17B7	-1.53	active
91	HSD17B7	0.14	inactive
92	ASB8	0.99	inactive
93	ASB8	-1.63	active
94	ASB8	-0.09	inactive
95	ASB8	-0.78	inactive
96	CENPT	0.03	inactive
97	CENPT	0.83	inactive
98	CENPT	-0.65	inactive
99	CENPT	2.53	inactive
100	ARPP19	-0.24	inactive
101	ARPP19	1.09	inactive
102	ARPP19	0.1	inactive
103	ARPP19	-0.01	inactive
104	TRIM11	-0.4	inactive
105	TRIM11	-0.52	inactive
106	TRIM11	-1.46	inactive
107	TRIM11	-0.36	inactive
108	SOX9	1.77	inactive
109	SOX9	1.95	inactive
110	SOX9	1.39	inactive
111	SOX9	2	inactive
112	EIF2B2	-0.79	inactive
113	EIF2B2	-1.4	inactive
114	EIF2B2	-0.81	inactive
115	EIF2B2	-0.77	inactive
116	SYT13	-0.94	inactive
117	SYT13	0.68	inactive
118	SYT13	0.83	inactive
119	SYT13	1.22	inactive
120	KRTAP5-8	2.2	inactive
121	KRTAP5-8	3.12	active
122	KRTAP5-8	1.82	inactive
123	KRTAP5-8	1.23	inactive
124	STAB1	-0.22	inactive
125	STAB1	-0.52	inactive
126	STAB1	0.17	inactive
127	STAB1	-0.76	inactive
128	GSTCD	0.1	inactive
129	GSTCD	0.74	inactive
130	GSTCD	2.76	inactive
131	GSTCD	-0.04	inactive
132	ZNF623	0.47	inactive
133	ZNF623	-0.22	inactive
134	ZNF623	-0.26	inactive
135	ZNF623	0.34	inactive
136	CLIP3	0.41	inactive
137	CLIP3	-0.01	inactive
138	CLIP3	0.45	inactive
139	CLIP3	1.07	inactive
140	ARHGDIG	1.75	inactive
141	ARHGDIG	0	inactive
142	ARHGDIG	-0.09	inactive
143	ARHGDIG	0.16	inactive
